The assay has as its target 4-1BB on CD3-stimulated human T lymphocytes (PBMC) (human) (UniProt Q07011). In words: flow cytometry on CD3-stimulated PBMC, ligand at 10 µg/ml revealed through anti-FLAG mAb.

The chains behind the UniProt entries cited, without tags or fusion partners. Residues count along the entry.
UniProt Q07011, residues 24-255: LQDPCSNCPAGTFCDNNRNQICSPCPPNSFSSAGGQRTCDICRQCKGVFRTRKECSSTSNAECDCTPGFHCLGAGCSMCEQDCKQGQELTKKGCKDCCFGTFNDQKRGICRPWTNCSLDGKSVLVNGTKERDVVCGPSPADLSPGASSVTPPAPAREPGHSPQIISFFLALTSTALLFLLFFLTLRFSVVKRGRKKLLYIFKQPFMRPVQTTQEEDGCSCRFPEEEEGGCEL
UniProt P41273, residues 93-254: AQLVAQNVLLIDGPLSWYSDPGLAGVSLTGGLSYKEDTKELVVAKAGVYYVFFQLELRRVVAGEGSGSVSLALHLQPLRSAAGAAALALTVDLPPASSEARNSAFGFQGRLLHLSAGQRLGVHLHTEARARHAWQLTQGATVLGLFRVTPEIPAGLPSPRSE

The text below walks through data of patent publication EP1736482A1.

No constants are given. Whether binding was seen depends on the method and setting. Some results given as binding are weak or reduced against the parent protein; the word gives no strength.

Regarding “FLAG-4-1BBL (Alexis), FLAG peptide coupled to the TNF homology domain of human 4-1BBL through an undefined 11 aa linker (from UniProt P41273 93-254) (ligand)”, the binding result was “binds”.
